Some results were stated once for a whole list of compounds, not compound by compound.
Columns and labels:
[1] = test system: Staphylococcus aureus (MRSA and MSSA strains); experiment: Synergy time-kill assay (6 hours, combination compared to most active single agent); format: cell-based; settings: MRSA strain 650; 1×MIC; 1×10^9 starting inoculum; daptomycin 1 μg/ml
[2] = test system: Staphylococcus aureus (MRSA and MSSA strains); experiment: Time kill assay, single agents at 1×MIC (CLSI); format: cell-based; settings: most MRSA and MSSA strains; over a few hours or more of incubation

| Molecule | log kill, single agent alone [1] | reduction of growth [2] |
| --- | --- | --- |
| CCCCCCCCCC(=O)N[C@@H](Cc1c[nH]c2ccccc12)C(=O)N[C@H](CC(N)=O)C(=O)N[C@@H](CC(=O)O)C(=O)N[C@@H]1C(=O)NCC(=O)N[C@@H](CCCN)C(=O)N[C@@H](CC(=O)O)C(=O)N[C@H](C)C(=O)N[C@@H](CC(=O)O)C(=O)NCC(=O)N[C@H](CO)C(=O)N[C@@H]([C@H](C)CC(=O)O)C(=O)N[C@@H](CC(=O)c2ccccc2N)C(=O)O[C@@H]1C [Daptomycin] | 4-5 log | 2-3 logs |
| PlySs2: bacteriophage lysin derived from Streptococcus suis, amino acid sequence of FIG. 29 (SEQ ID NO: 1), N-terminal CHAP and C-terminal SH3 domain (protein, listed as Streptococcus suis) MTTVNEALNNVRAQVGSGVSVGNGECYALASWYERMISPDATVGLGAGVGWVSGAIGDTISAKNIGSSYNWQANGWTVSTSGPFKAGQIVTLGATPGNPYGHVVIVEAVDGDRLTILEQNYGGKRYPVRNYYSAASYRQQVVHYITPPGTVAQSAPNLAGSRSYRETGTMTVTVDALNVRRAPNTSGEIVAVYKRGESFDYDTVIIDVNGYVWVSYIGGSGKRNYVATGATKDGKRFGNAWGTFK | 4-5 log | – |
